Here are results for 20 targets from the supplement of paper PMC6411743.

Protein sequences, listed by entry. Tags and fused reporters are not part of them. Lines headed by an entry give the natural chain unless they say otherwise; changes in a name come on top.
UniProt Q9Y2H0: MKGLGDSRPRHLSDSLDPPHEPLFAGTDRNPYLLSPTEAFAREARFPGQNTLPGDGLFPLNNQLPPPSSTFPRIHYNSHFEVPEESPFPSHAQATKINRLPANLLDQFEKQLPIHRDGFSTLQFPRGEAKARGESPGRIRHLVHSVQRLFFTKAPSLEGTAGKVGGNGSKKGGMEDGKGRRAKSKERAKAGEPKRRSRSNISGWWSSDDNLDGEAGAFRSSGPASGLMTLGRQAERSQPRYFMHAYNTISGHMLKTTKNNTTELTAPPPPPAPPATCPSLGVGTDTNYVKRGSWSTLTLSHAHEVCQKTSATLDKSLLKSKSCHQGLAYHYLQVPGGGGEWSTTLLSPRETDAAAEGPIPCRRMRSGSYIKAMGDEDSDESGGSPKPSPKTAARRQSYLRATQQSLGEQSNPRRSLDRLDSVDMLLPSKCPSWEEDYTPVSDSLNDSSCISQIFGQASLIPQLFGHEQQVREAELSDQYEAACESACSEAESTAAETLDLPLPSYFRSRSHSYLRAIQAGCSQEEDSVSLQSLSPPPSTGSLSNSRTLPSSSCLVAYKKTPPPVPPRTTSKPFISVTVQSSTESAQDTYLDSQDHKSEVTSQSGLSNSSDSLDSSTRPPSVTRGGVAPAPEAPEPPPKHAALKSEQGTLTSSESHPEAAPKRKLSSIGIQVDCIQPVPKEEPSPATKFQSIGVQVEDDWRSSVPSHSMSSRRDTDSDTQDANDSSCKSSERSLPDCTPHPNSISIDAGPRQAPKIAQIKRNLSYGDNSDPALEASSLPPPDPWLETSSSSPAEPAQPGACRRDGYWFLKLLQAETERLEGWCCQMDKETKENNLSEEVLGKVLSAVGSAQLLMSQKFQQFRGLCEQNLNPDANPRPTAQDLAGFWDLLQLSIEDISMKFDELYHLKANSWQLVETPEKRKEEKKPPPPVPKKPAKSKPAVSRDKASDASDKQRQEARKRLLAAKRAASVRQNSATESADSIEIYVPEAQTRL
UniProt Q9UKL6: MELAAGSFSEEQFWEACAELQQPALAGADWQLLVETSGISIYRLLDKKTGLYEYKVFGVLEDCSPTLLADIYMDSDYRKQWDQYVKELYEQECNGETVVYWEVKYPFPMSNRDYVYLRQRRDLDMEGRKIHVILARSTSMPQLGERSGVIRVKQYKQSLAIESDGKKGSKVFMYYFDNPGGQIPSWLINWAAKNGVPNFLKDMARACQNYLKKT
UniProt Q9UJD0: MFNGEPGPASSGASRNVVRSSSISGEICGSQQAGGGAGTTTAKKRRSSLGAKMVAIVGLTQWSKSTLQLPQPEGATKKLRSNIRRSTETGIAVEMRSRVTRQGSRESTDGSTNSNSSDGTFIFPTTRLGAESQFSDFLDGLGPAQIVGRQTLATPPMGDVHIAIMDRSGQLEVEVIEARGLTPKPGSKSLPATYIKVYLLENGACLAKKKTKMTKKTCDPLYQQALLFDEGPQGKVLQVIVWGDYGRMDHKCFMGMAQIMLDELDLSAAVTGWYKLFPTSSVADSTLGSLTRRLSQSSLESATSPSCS
UniProt Q9UHD2: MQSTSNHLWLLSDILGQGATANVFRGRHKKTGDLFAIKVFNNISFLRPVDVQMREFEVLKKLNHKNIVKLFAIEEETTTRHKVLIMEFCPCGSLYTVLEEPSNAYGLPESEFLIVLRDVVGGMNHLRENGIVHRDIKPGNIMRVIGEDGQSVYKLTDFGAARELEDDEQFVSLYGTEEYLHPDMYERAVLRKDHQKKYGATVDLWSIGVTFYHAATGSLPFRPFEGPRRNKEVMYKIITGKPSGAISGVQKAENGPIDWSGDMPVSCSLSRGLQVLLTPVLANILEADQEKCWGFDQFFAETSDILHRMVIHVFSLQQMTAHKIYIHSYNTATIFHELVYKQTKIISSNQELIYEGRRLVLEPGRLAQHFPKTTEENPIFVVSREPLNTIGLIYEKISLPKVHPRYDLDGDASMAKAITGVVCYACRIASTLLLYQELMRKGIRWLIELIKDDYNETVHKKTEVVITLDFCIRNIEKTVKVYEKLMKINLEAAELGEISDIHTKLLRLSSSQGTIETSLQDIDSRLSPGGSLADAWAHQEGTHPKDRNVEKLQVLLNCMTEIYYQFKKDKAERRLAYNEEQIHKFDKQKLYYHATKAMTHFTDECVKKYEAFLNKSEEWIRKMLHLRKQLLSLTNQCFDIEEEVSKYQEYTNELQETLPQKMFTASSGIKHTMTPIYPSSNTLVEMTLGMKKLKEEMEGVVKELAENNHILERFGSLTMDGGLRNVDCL
UniProt Q9Y3A2: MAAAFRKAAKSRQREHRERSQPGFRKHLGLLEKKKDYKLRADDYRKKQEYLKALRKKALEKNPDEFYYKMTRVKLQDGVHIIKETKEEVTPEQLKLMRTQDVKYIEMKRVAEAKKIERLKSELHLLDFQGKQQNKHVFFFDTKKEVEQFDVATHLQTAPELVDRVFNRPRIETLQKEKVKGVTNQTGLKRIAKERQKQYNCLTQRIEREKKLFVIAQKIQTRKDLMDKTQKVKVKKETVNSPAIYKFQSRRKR
UniProt Q9Y333: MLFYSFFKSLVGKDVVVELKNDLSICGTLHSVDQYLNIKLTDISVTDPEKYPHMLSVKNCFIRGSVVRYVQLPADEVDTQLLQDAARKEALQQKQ
UniProt Q9Y2U8: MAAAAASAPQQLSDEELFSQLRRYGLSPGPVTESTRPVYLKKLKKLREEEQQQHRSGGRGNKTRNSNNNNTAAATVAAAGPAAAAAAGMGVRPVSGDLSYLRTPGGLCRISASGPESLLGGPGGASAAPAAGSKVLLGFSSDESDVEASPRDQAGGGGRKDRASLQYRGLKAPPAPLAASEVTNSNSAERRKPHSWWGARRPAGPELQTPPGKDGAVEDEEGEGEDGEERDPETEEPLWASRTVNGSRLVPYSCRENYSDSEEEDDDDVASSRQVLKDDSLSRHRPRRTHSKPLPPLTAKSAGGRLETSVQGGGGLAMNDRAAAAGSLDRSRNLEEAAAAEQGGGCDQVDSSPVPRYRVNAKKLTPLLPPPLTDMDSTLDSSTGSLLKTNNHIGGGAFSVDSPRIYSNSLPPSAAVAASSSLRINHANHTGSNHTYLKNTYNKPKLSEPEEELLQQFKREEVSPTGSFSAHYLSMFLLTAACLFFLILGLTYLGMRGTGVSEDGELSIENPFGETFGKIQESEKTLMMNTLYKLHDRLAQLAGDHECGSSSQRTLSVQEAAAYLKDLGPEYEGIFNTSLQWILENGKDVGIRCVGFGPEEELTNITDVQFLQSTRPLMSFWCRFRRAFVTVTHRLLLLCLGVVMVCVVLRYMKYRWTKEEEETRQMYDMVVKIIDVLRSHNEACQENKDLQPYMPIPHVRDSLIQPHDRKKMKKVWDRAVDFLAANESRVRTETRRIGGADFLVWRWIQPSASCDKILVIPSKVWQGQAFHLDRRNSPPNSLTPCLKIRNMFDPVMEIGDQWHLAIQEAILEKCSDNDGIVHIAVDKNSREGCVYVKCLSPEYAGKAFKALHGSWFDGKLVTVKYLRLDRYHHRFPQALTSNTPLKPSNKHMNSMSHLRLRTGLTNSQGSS
UniProt Q9UHN1: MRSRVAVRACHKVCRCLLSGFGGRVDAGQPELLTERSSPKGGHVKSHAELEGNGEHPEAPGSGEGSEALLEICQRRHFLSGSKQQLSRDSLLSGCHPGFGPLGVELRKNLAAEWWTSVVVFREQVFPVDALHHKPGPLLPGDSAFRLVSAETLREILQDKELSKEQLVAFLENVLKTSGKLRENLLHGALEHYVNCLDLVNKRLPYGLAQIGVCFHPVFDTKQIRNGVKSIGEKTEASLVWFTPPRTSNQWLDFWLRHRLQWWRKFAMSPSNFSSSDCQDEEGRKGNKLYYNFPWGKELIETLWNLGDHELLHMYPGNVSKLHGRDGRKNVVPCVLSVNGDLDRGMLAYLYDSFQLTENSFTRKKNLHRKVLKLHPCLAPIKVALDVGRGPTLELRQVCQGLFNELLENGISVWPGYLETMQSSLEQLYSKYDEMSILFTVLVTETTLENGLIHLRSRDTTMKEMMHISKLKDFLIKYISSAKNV
UniProt Q9UDT6: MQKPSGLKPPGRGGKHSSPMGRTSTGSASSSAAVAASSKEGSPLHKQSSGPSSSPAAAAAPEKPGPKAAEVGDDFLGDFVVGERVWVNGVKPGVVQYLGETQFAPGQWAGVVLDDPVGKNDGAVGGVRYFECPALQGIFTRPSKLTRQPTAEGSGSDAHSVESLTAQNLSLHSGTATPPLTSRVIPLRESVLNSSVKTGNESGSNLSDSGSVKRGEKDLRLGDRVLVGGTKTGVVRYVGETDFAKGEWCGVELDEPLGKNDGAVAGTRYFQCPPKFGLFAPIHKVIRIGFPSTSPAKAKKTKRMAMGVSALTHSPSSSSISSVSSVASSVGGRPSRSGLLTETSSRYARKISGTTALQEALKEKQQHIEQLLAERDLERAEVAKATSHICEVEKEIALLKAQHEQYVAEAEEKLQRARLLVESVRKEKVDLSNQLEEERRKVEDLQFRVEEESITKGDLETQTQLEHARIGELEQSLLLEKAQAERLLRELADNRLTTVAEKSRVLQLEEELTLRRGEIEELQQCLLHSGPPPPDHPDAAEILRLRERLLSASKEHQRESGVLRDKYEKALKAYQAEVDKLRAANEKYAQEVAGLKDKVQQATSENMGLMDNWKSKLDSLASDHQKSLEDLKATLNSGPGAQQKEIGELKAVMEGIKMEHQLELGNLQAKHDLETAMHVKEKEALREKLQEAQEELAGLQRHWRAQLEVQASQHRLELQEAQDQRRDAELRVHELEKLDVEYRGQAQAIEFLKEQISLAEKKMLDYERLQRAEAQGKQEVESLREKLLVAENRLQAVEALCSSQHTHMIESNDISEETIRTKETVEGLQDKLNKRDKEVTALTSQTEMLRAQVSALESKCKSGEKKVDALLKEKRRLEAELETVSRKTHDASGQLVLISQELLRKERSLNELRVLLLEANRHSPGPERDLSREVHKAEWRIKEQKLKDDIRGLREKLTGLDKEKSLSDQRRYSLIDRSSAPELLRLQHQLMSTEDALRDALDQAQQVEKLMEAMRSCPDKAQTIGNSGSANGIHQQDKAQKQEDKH
UniProt Q9UHW5, whole entry: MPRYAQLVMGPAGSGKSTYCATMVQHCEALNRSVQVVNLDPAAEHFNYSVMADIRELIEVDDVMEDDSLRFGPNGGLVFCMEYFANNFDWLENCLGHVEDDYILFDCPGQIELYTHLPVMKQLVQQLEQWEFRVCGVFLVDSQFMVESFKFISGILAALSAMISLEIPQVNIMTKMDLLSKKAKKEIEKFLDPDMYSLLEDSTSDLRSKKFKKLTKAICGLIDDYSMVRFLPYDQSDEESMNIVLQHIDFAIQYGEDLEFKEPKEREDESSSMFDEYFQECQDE
UniProt Q9UHC7: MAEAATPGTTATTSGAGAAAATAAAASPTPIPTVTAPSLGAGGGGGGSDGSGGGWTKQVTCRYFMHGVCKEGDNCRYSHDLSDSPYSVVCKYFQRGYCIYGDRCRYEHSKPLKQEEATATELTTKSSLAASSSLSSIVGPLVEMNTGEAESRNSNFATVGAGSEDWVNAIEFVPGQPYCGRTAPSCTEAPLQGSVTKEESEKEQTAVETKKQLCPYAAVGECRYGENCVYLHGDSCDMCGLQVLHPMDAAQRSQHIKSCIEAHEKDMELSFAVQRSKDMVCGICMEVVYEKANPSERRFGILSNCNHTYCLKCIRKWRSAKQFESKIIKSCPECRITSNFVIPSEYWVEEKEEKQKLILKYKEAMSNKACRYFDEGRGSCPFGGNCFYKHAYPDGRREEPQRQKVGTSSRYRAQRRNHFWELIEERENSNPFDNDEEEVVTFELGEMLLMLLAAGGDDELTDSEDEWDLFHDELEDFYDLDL
UniProt Q9UIC8: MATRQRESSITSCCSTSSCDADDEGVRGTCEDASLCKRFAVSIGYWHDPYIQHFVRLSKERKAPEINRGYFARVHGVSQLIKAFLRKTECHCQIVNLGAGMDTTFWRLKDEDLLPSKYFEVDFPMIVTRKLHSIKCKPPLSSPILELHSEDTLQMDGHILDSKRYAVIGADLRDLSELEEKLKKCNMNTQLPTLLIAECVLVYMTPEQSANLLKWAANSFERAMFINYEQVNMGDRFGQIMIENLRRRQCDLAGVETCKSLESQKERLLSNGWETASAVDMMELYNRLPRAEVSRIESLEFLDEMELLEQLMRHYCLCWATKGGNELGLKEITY
UniProt Q9UJZ1: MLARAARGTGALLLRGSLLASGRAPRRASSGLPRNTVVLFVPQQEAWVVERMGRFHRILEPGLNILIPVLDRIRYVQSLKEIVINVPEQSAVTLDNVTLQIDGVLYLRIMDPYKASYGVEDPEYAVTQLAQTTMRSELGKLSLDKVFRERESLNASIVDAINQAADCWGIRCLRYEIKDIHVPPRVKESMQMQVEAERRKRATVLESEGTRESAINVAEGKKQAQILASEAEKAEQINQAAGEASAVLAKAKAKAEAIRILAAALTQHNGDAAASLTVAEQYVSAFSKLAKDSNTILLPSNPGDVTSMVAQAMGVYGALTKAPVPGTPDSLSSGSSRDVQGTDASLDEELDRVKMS

± gives the standard deviation of the averaged measurements. The entries are a selection whose mix differs from that of the whole data set. Most values lie at the level of the controls, where differences are scatter.

Compound in the assay: Nc1ncnc2c1ncn2[C@@H]1O[C@H](COP(=O)(O)OP(=O)(O)NP(=O)(O)O)[C@@H](O)[C@H]1O [adenylyl imidodiphosphate]
The experiment in a line: NP40-soluble protein abundance relative to vehicle (solubility fold change) (ratio); higher = more soluble protein in presence of AMP-PNP. Put shortly: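 Jurkat crude lysate prepared with a Dounce homogeniser was treated at eight concentrations spanning 0.1 to 10 mM, 10 min at room temperature then 3 min at 37 °C. Solubilisation with 0.8% NP40 and benzonase and ultracentrifugation preceded TMT labelling of the supernatant for LC-MS/MS. Fold change against the detergent-processed vehicle was determined per replicate from vsn-normalised intensities, across three independent experiments.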

As for “UniProt Q9ULU4-11|Q9ULU4-19|Q9ULU4-7|A0A087WYS3|Q9ULU4-13|Q9ULU4-22|Q9ULU4-8|Q9ULU4-9”, the NP40-soluble protein abundance by setting is: (concentration: 0.1mM) 0.996 ± 0.032; (concentration: 0.5mM) 0.986 ± 0.021.

As to UniProt Q9Y2H0 and related entries, the NP40-soluble protein abundance (concentration: 0.1mM) amounted to 0.978 ± 0.026 and the NP40-soluble protein abundance (concentration: 0.5mM) came out at 0.982 ± 0.039.

As for UniProt Q9UKL6 and related entries, the NP40-soluble protein abundance amounted to 0.992 ± 0.015 (concentration: 0.1mM) and 0.994 ± 0.031 (concentration: 0.5mM).

Turning to UniProt Q9UKZ1, the NP40-soluble protein abundance came to 0.965 ± 0.025 (concentration: 0.1mM) and 0.983 ± 0.021 (concentration: 0.5mM).

Take UniProt Q9UJD0: the NP40-soluble protein abundance (concentration: 0.1mM) was 0.992 ± 0.02 and the NP40-soluble protein abundance (concentration: 0.5mM) was determined as 1.01 ± 0.024.

For TBK1 (UniProt Q9UHD2), the NP40-soluble protein abundance by setting is: (concentration: 0.1mM) 1.01 ± 0.029; (concentration: 0.5mM) 0.994 ± 0.041.

On to UTP11 (UniProt Q9Y3A2), for which the NP40-soluble protein abundance (concentration: 0.1mM) is 0.995 ± 0.039 and the NP40-soluble protein abundance (concentration: 0.5mM) amounted to 1.02 ± 0.015.

For UniProt Q9Y333, the NP40-soluble protein abundance is, setting by setting: (concentration: 0.1mM) 0.97 ± 0.11; (concentration: 0.5mM) 0.999 ± 0.1.

Regarding LEMD3 (UniProt Q9Y2U8), the NP40-soluble protein abundance reads like this: (concentration: 0.1mM) 0.997 ± 0.035; (concentration: 0.5mM) 1 ± 0.055.

As for UniProt Q9ULH7-4|Q9ULH7-5|Q9ULH7, the NP40-soluble protein abundance is 0.981 ± 0.017 (concentration: 0.1mM) and 0.987 ± 0.054 (concentration: 0.5mM).

POLG2 (UniProt Q9UHN1): the NP40-soluble protein abundance is 1.08 ± 0.083 (concentration: 0.1mM) and 1.05 ± 0.064 (concentration: 0.5mM).

Turning to UniProt Q9UDT6 and related entries, the NP40-soluble protein abundance runs as follows: (concentration: 0.1mM) 1.02 ± 0.037; (concentration: 0.5mM) 1.02 ± 0.06.

UniProt Q9UHW5 and related entries: the NP40-soluble protein abundance reads like this: (concentration: 0.1mM) 0.992 ± 0.022; (concentration: 0.5mM) 0.998 ± 0.018.

Regarding MTMR6 (UniProt Q9Y217), the NP40-soluble protein abundance is, setting by setting: (concentration: 0.1mM) 0.978 ± 0.023; (concentration: 0.5mM) 0.983 ± 0.038.

For the target CPSF3 (UniProt Q9UKF6), the NP40-soluble protein abundance runs as follows: (concentration: 0.1mM) 1.01 ± 0.014; (concentration: 0.5mM) 0.9955 ± 0.0096.

As for UniProt Q9UHC7 and related entries, the NP40-soluble protein abundance reads like this: (concentration: 0.1mM) 1.02 ± 0.038; (concentration: 0.5mM) 1.04 ± 0.033.

As for UniProt Q9UIC8 and related entries, the NP40-soluble protein abundance is, setting by setting: (concentration: 0.1mM) 0.99 ± 0.049; (concentration: 0.5mM) 0.95 ± 0.084.

For the target SEC63 (UniProt Q9UGP8), the NP40-soluble protein abundance runs as follows: (concentration: 0.1mM) 0.989 ± 0.029; (concentration: 0.5mM) 0.994 ± 0.034.

For UniProt Q9UQ13 and related entries, the NP40-soluble protein abundance is, setting by setting: (concentration: 0.1mM) 1.03 ± 0.026; (concentration: 0.5mM) 1.01 ± 0.018.

With UniProt Q9UJZ1 and related entries, the NP40-soluble protein abundance (concentration: 0.1mM) was 0.975 ± 0.017 and the NP40-soluble protein abundance (concentration: 0.5mM) is 1.04 ± 0.053.
